Measured values: patent publication US12552694B2, “Use of trivalent metals to enhance aquatic pesticide efficacy, surface water, and sediment quality while minimizing risk to aquatic biota” (SePRO Corporation, priority 2022, dated 2026)
Where two headings read alike, the source gives them in different places. Some entries repeat one wording, which the source may state once for all of them.

Columns and labels:
[1] = 2 hours after La/Ce addition
[2] = Example 1: capacity of additives to bind dissolved La and Ce (ICP-OES); format: physicochemical
[3] = Example 1: preservation of P binding after additive (dissolved P colour reagent); format: physicochemical
[4] = dissolved Ce after additive, 0.22 μm filtered, control 10.833 mg/L
[5] = reduction in dissolved Ce vs control
[6] = reduction in dissolved La vs control
[7] = approximately 1 ppm P added to remaining sample, blue = dissolved P remains

SMILES | % Ce reduction [2] [%] | % La reduction [2] [%] | Ce [2] [mg/L] | Ce bound [2] [mg/g] | La bound [2] [mg/g] | Total La/Ce bound [2] [mg/g] | Also binds P [3] | further results
c1cc[n+]2c(c1)-c1cccc[n+]1CC2 [Diquat only, diquat] | – | – | – | – | – | – | – | Dissolved Ce ([1]; 50 μg/L diquat): 271 µg/L; Dissolved La ([1]; 50 μg/L diquat): 175 µg/L; Total Dissolved Ce & La ([1]; 50 μg/L diquat): 446 µg/L; Dissolved Ce ([1]; 100 μg/L diquat): 305 µg/L; Dissolved La ([1]; 100 μg/L diquat): 191 µg/L; Total Dissolved Ce & La ([1]; 100 μg/L diquat): 496 µg/L; Dissolved Ce ([1]; 200 μg/L diquat): 248 µg/L; Dissolved La ([1]; 200 μg/L diquat): 166 µg/L; Total Dissolved Ce & La ([1]; 200 μg/L diquat): 414 µg/L; Dissolved Ce ([1]; 300 μg/L diquat): 385 µg/L; Dissolved La ([1]; 300 μg/L diquat): 222 µg/L; Total Dissolved Ce & La ([1]; 300 μg/L diquat): 607 µg/L
C=CC(=O)[O-].[Na+] [Sodium acrylate, sodium acrylate] | −28 | −14 | 13.9 | -1.42 | -0.68 | -2.10 | did display a preservation of P-binding capability and YES | –
[O]=[Mg] [Magnesium oxide, magnesium oxide] | – | – | 0.0662 | 5.36 | 5.34 | 10.71 | still binding P and YES | –
[Ca+2].[OH-].[OH-] [Calcium hydroxide, calcium hydroxide] | – | – | 0.173 | 5.31 | 5.15 | 10.46 | – | –
O=C([O-])CC(O)(CC(=O)[O-])C(=O)[O-].[Na+].[Na+].[Na+] [Sodium citrate, sodium citrate] | 20 | 20 | 8.67 | 1.10 | 1.12 | 2.21 | did display a preservation of P-binding capability and YES | –
[Na+].[OH-] [Sodium hydroxide, sodium hydroxide] | – | – | 0.106 | 4.98 | 4.94 | 9.91 | – | –
O=[Si]([O-])[O-].[Na+].[Na+] [Sodium metasilicate (anhydrous), sodium metasilicate (anhydrous)] | – | – | – | – | – | – | – | Ce [2, 4]: 3.39 mg/L; Ce bound ([2]; per g additive): 3.62 mg/g; La bound ([2]; per g additive): 3.86 mg/g; Total La/Ce bound ([2]; per g additive): 7.48 mg/g; % Ce reduction [2, 5]: 69%; % Ce reduction ([2]; reduction in dissolved Ce vs control, listed as sodium metasilicate (anhydrous)): approximately 69%; % La reduction [2, 6]: 73%; % La reduction ([2]; reduction in dissolved La vs control, listed as sodium metasilicate (anhydrous)): approximately 73%; Also binds P [3, 7]: did not display a preservation of P binding capability
O=C([O-])[O-].[Ca+2] [Calcium carbonate, calcium carbonate] | 34 | 40 | 7.11 | 1.76 | 2.07 | 3.83 | did display a preservation of P-binding capability and YES | –
NC(=O)CC[C@H](N)C(=O)O [Glutamine, glutamine] | – | – | – | – | – | – | – | Ce [2, 4]: 9.67 mg/L; Ce bound ([2]; per g additive): 0.59 mg/g; La bound ([2]; per g additive): 0.61 mg/g; Total La/Ce bound ([2]; per g additive): 1.20 mg/g; % Ce reduction [2, 5]: 11%; % La reduction [2, 6]: 11%; Also binds P [3, 7]: YES; Also binds P ([3]; approximately 1 ppm P added to remaining sample, blue = dissolved P remains, listed as glutamine): did display a preservation of P-binding capability
O=C([O-])C(O)C(O)C(=O)[O-].[Na+].[Na+] (centres unmarked) [Sodium tartrate, sodium tartrate] | 18 | 18 | 8.89 | 0.98 | 1.01 | 2.00 | did display a preservation of P-binding capability and YES | –
O.O=C([O-])C(=O)[O-].[K+].[K+] [Potassium oxalate (monohydrate), potassium oxalate (monohydrate)] | – | – | 1.99 | 4.45 | 4.55 | 9.00 | – | –
